{"source": "patent US7807712B2", "about": "“Oxy substituted chalcones as antihyperglycemic and antidyslipidemic agents” (priority 2004, dated 2010)", "tested_on": "sucrose loaded rats", "assay": "Sucrose loaded rat model (SLM), antihyperglycemic activity", "format": "in vivo, rat (Charles Foster/Wistar)", "details": "100 mg/kg oral; sucrose load 10.0 g/kg; AUC vs control, 30-120 min", "experimental": "Male albino rats of Charles Foster/Wistar strain of average body weight 160±20 g were selected for this study. The blood glucose level of each animal was checked by glucometer using glucostrips (Boehringer Mannheim) after 16 h starvation. Animals showing blood glucose levels between 3.33 to 4.44 mM (60 to 80 mg/dl) were divided into groups of five to six animals in each. Animals of experimental group were administered suspension of the desired synthetic compound orally (made in 1.0% gum acacia) at a dose of 100-mg/kg-body weight. Animals of control group were given an equal amount of 1.0% gum acacia. A sucrose load (10.0 g/kg) was given to each animal orally exactly after 30 min post administration of the test sample/vehicle. Blood glucose profile of each rat was again determined at 30, 60, 90 and 120 min post administration of sucrose by glucometer. Food but not water was withheld from the cages during the course of experimentation. Quantitative glucose tolerance of each animal was calculated by Area Under Curve (AUC) method (Prism Software). Comparing the AUC of experimental and control groups determined the percentage antihyperglycemic activity. Statistical comparison was made by Dunnett's test.", "note": "At least one compound was matched to its structure with a doubt left.", "data": [{"smiles": "CNCC(O)COc1ccc(C(=O)/C=C/c2ccc(OC)cc2)cc1", "note": "(stereo not shown) [Compound 26, 4′-[2-Hydroxy-3-methylamino-propoxy]-4-methoxy-chalcone]", "values": [{"measurement": "% Fall in blood glucose levels SLM", "result": "NIL"}]}]}
